Some results were stated once for a whole list of compounds, not compound by compound.
What was measured:
Format in all cases: in vivo
[1] = tested on: fall armyworm (Spodoptera frugiperda); experiment: Test A: control of fall armyworm, foliar spray on corn; details: sprayed at 50 ppm, visually assessed after 6 days
[2] = tested on: tobacco budworm (Heliothis virescens); experiment: Test B: control of tobacco budworm, foliar spray on cotton; details: sprayed at 50 ppm, visually rated after 6 days
[3] = tested on: beet armyworm (Spodoptera exigua); experiment: Test C: control of beet armyworm, foliar spray on corn; details: sprayed at 50 ppm, visually rated after 6 days

Measured: feeding damage (excellent levels of plant protection)

Cc1cccc(C(=O)NC(C)C)c1NC(=O)c1cc(C(F)(F)F)nn1-c1ncccc1C(F)(F)F [Compound 79]
≤ 10%: [1] | [2] | [3]

Cc1cccc(C(=O)NC(C)C)c1NC(=O)c1cc(C(F)(F)F)nn1-c1c(Cl)cccc1Cl [Compound 84]
≤ 10%: [1] | [2] | [3]

CC(C)NC(=O)c1cccc(Cl)c1NC(=O)c1cc(C(F)(F)F)nn1-c1c(Cl)cccc1Cl [Compound 85]
≤ 10%: [1] | [2] | [3]

Cc1cccc(C(=O)NC(C)C)c1NC(=O)c1cc(Br)nn1-c1ccccc1 [Compound 86]
≤ 10%: [1] | [2] | [3]

CC(C)NC(=O)c1cccc(Cl)c1NC(=O)c1cc(Br)nn1-c1ccccc1 [Compound 87]
≤ 10%: [1] | [2] | [3]

Cc1cccc(C(=O)NC(C)C)c1NC(=O)c1cc(C(F)(F)F)nn1-c1cccnc1 [Compound 91]
≤ 10%: [1] | [2] | [3]

Cc1cccc(C(=O)NC(C)C)c1NC(=O)c1cc(C(F)(F)F)nn1-c1ccc(F)cc1F [Compound 94]
≤ 10%: [1] | [2] | [3]

CC(C)NC(=O)c1cccc(Cl)c1NC(=O)c1cc(C(F)(F)F)nn1-c1ccc(F)cc1F [Compound 95]
≤ 10%: [1] | [2] | [3]

CCc1ccccc1-n1nc(C(F)(F)F)cc1C(=O)Nc1c(C)cccc1C(=O)NC(C)C [Compound 96]
≤ 10%: [1] | [2] | [3]

Cc1cccc(C(=O)NC(C)C)c1NC(=O)c1cc(C(F)(F)F)nn1-c1c(Cl)cncc1Cl [Compound 113]
≤ 10%: [1] | [2] | [3]

CC(C)NC(=O)c1cccc(Cl)c1NC(=O)c1cc(C(F)(F)F)nn1-c1c(Cl)cncc1Cl [Compound 114]
≤ 10%: [1] | [2] | [3]

CSCC(C)NC(=O)c1cccc(C)c1NC(=O)c1cc(C(F)(F)F)nn1-c1ccccc1Cl (stereo not drawn) [Compound 115]
≤ 10%: [1] | [2] | [3]

COCC(C)NC(=O)c1cccc(C)c1NC(=O)c1cc(C(F)(F)F)nn1-c1ccccc1Cl (stereo not drawn) [Compound 116]
≤ 10%: [1] | [2] | [3]

CCC(C)NC(=O)c1cccc(C)c1NC(=O)c1cc(C(F)(F)F)nn1-c1ccccc1Cl (stereo not drawn) [Compound 117]
≤ 10%: [1] | [2] | [3]

Cc1cccc(C(=O)NC2CC2)c1NC(=O)c1cc(C(F)(F)F)nn1-c1ccccc1Cl [Compound 118]
≤ 10%: [1] | [2] | [3]

CCCNC(=O)c1cccc(C)c1NC(=O)c1cc(C(F)(F)F)nn1-c1ccccc1Cl [Compound 119]
≤ 10%: [1] | [2] | [3]

Cc1cccc(C(=O)NCC(C)C)c1NC(=O)c1cc(C(F)(F)F)nn1-c1ccccc1Cl [Compound 120]
≤ 10%: [1] | [2] | [3]

CNC(=O)c1cccc(C)c1NC(=O)c1cc(C(F)(F)F)nn1-c1ccccc1Cl [Compound 121]
≤ 10%: [1] | [2] | [3]

Cc1cccc(C(=O)N(C)C(C)C)c1NC(=O)c1cc(C(F)(F)F)nn1-c1ccccc1Cl [Compound 122]
≤ 10%: [1] | [2] | [3]

C#CCNC(=O)c1cccc(C)c1NC(=O)c1cc(C(F)(F)F)nn1-c1ccccc1Cl [Compound 123]
≤ 10%: [1] | [2] | [3]

CCNC(=O)c1cccc(C)c1NC(=O)c1cc(C(F)(F)F)nn1-c1ccccc1Cl [Compound 124]
≤ 10%: [1] | [2] | [3]

C=CCNC(=O)c1cccc(C)c1NC(=O)c1cc(C(F)(F)F)nn1-c1ccccc1Cl [Compound 125]
≤ 10%: [1] | [2] | [3]

Cc1cccc(C(=O)NCc2ccco2)c1NC(=O)c1cc(C(F)(F)F)nn1-c1ccccc1Cl [Compound 126]
≤ 10%: [1] | [2] | [3]

CC(C)NC(=O)c1cccc(I)c1NC(=O)c1cc(C(F)(F)F)nn1-c1ccccc1Cl [Compound 141]
≤ 10%: [1] | [2] | [3]

Cc1cccc(C(=O)NC(C)C)c1NC(=O)c1cc(Br)nn1-c1ccccc1Cl [Compound 142]
≤ 10%: [1] | [2] | [3]

CC(C)NC(=O)c1cccc(Cl)c1NC(=O)c1cc(Br)nn1-c1ccccc1Cl [Compound 143]
≤ 10%: [1] | [2] | [3]

COc1ccccc1-n1nc(C(F)(F)F)cc1C(=O)Nc1c(Cl)cccc1C(=O)NC(C)C [Compound 145]
≤ 10%: [1] | [2] | [3]

CSCC(C)NC(=O)c1cccc(Cl)c1NC(=O)c1cc(C(F)(F)F)nn1-c1ccccc1Cl (stereo not drawn) [Compound 147]
≤ 10%: [1] | [2] | [3]

O=C(NC1CC1)c1cccc(Cl)c1NC(=O)c1cc(C(F)(F)F)nn1-c1ccccc1Cl [Compound 150]
≤ 10%: [1] | [2] | [3]

CCCNC(=O)c1cccc(Cl)c1NC(=O)c1cc(C(F)(F)F)nn1-c1ccccc1Cl [Compound 151]
≤ 10%: [1] | [2] | [3]

CNC(=O)c1cccc(Cl)c1NC(=O)c1cc(C(F)(F)F)nn1-c1ccccc1Cl [Compound 153]
≤ 10%: [1] | [2] | [3]

CC(C)N(C)C(=O)c1cccc(Cl)c1NC(=O)c1cc(C(F)(F)F)nn1-c1ccccc1Cl [Compound 154]
≤ 10%: [1] | [2] | [3]

C#CCNC(=O)c1cccc(Cl)c1NC(=O)c1cc(C(F)(F)F)nn1-c1ccccc1Cl [Compound 155]
≤ 10%: [1] | [2] | [3]

CCNC(=O)c1cccc(Cl)c1NC(=O)c1cc(C(F)(F)F)nn1-c1ccccc1Cl [Compound 156]
≤ 10%: [1] | [2] | [3]

O=C(NCc1ccco1)c1cccc(Cl)c1NC(=O)c1cc(C(F)(F)F)nn1-c1ccccc1Cl [Compound 158]
≤ 10%: [1] | [2] | [3]

C#Cc1cc(C(=O)Nc2c(Cl)cccc2C(=O)NC(C)C)n(-c2ccccc2Cl)n1 [Compound 161]
≤ 10%: [1] | [2] | [3]

CC(C)NC(=S)c1cccc(Cl)c1NC(=O)c1cc(C(F)(F)F)nn1-c1ccccc1 [Compound 164]
≤ 10%: [1] | [2] | [3]

Cc1cccc(C(=O)NC(C)C)c1NC(=O)c1cc(C(F)(F)F)nn1-c1c(F)cccc1F [Compound 165]
≤ 10%: [1] | [2] | [3]

Cc1cccc(C(=O)NC(C)C)c1NC(=O)c1cc(C(F)(F)F)nn1-c1c(F)cccc1Cl [Compound 166]
≤ 10%: [1] | [2] | [3]

Reference: patent publication US7696233B2, “Method for controlling particular insect pests by applying anthranilamide compounds” (E. I. du Pont de Nemours and Company, priority 2001, dated 2010)
